The list is a part of this screen's results and no random one: it is rich in T/C values a quarter to a half above the control, in often repeated tests (any T/C) and in doses without a T/C. Further doses and runs are listed elsewhere. T/C gives the treated animals as a percentage of the vehicle group. Some entries give survivors of the animals treated and no T/C: the source holds a T/C of zero for them, seemingly a mark for toxic or unscored doses. Some doses without a T/C left all or most animals alive at the check, yet need not have been tolerated: survival well below the control is almost never listed, so the zero probably covers shortened survival too. Survivors were counted at the toxicity check, usually on the fifth day, unless a day is given; later deaths do not show. Schedule codes are those of the source, read here as Q, the interval in days (D) or hours (H), X, the number of doses. Some entries were tested several times; the results are listed from low to high. For survival time, this PubChem deposit counts one and a half times the control or more as active, and values a quarter to a half above the control carry no call in these data; other NCI protocols may use other cut-offs. Some schedule codes hold Z or #, which are not explained here. Some T/C values carry the count of animals alive at the toxicity check (mostly the fifth day); where none is given, no animal had died by that day.
System: L1210 leukemia ip in BDF1 mice, survival T/C
Experiment: NCI In Vivo Anticancer Drug Screen. Data for tumor model L1210 Leukemia (intraperitoneal) in B6D2F1 (BDF1) mice
Settings: T/C endpoint: mean survival time, higher T/C = longer survival
[1] = dose: 400.0 mg/kg/injection, schedule: Q01DX001 (ip), vehicle: saline
[2] = dose: 300.0 mg/kg/injection, schedule: Q01DX001 (ip), vehicle: saline
[3] = dose: 400.0 mg/kg/injection, schedule: Q01DX009 (ip), vehicle: Klucel (hydroxypropylcellulose) (HPC)
[4] = dose: 200.0 mg/kg/injection, schedule: Q01DX009 (ip), vehicle: Klucel (hydroxypropylcellulose) (HPC)
[5] = dose: 100.0 mg/kg/injection, schedule: Q04DX003 (ip), vehicle: saline
[6] = dose: 200.0 mg/kg/injection, schedule: Q04DX003 (ip), vehicle: saline
[7] = dose: 400.0 mg/kg/injection, schedule: Q04DX003 (ip), vehicle: saline

`CC1CCCC(NC(=O)N(CCCl)N=O)C1` (stereo not drawn) was tested, and the T/C (dose: 16.0 mg/kg/injection, schedule: Q01DX001 (ip), vehicle: other) was 147 % of control, the T/C (dose: 143.0 mg/kg/injection, schedule: Q01DX001 (ip), vehicle: other) was 128 % of control and the survivor count (dose: 250.0 mg/kg/injection, schedule: Q01DX001 (ip), vehicle: other) was 6 of 6. For the same compound, the survivor count (dose: 375.0 mg/kg/injection, schedule: Q01DX001 (ip), vehicle: other) was 6 of 6, the survivor count (dose: 500.0 mg/kg/injection, schedule: Q01DX001 (ip), vehicle: other) was 4 of 6 and the survivor count (dose: 750.0 mg/kg/injection, schedule: Q01DX001 (ip), vehicle: other) was 2 of 6.
For `O=C(COc1ccc(Cl)cc1Cl)OCCCl`, the survivor count (dose: 400.0 mg/kg/injection, schedule: Q04DX002 (ip), vehicle: Klucel (hydroxypropylcellulose) (HPC)) was 0 of 3.
For `CN1C2CNC(=O)CC1C1CCC2C1` (stereo not drawn), the survivor count (dose: 150.0 mg/kg/injection, schedule: Q01DX001 (ip), vehicle: carboxymethylcellulose (CMC)) was 2 of 6 and the survivor count (dose: 300.0 mg/kg/injection, schedule: Q01DX001 (ip), vehicle: carboxymethylcellulose (CMC)) was 0 of 6.
`CONC(=O)NC(=O)C1(c2ccccc2)CCCCC1` was tested, and the T/C (dose: 100.0 mg/kg/injection, schedule: Q01DX Z (ip), vehicle: methylcellulose (MC)) was 131 % of control.
For `COC1CCN(CCCn2c3ccccc3c3ccc(C(C)=O)cc32)CC1`, the survivor count [1] was 1 of 6.
`CC(C)C(Cl)C(=O)O` (stereo not drawn) was tested, and the survivor count [2] was 1 of 6.
`CCOC(=O)N(OC(C)=O)P(=O)(N1CC1(C)C)N1CC1(C)C` (stereo not drawn) was tested, and the survivor count (dose: 400.0 mg/kg/injection, schedule: Q04DX002 (ip), vehicle: saline) was 1 of 3.
In the case of `COc1cc(OC)c(OC)cc1OC`, the survivor count (dose: 400.0 mg/kg/injection, schedule: Q01DX009 (ip), vehicle: saline with Tween-80) is reported as 0 of 6.
For `Cc1ccc(C)c(CNC(=O)Nc2ccccc2Cl)c1`, the survivor count [3] was 5 of 6.
For `Cc1ccc(NC(=O)Nc2ccccc2C)c(C)c1`, the survivor count [3] was 6 of 6.
In the case of `O=C(COc1ccc(Cl)c(Cl)c1)NCc1cc[n+](Cc2ccc(S(=O)(=O)F)cc2)cc1`, the survivor count (dose: 400.0 mg/kg/injection, schedule: Q01DX001 (ip), vehicle: Klucel (hydroxypropylcellulose) (HPC)) is reported as 0 of 6.
`O=C(O)C1=CC(O)C(O)C(O)C1` (stereo not drawn) was tested, and the survivor count (dose: 400.0 mg/kg/injection, schedule: Q01DX009 (ip), vehicle: saline sonified) was 6 of 6.
With `NC1CCC(CC2CCCCC2)CC1` (stereo not drawn) the survivor count (dose: 100.0 mg/kg/injection, schedule: Q01DX009 (ip), vehicle: Klucel (hydroxypropylcellulose) (HPC)) was 3 of 6, the survivor count (dose: 100.0 mg/kg/injection, schedule: Q04DX003 (ip), vehicle: Klucel (hydroxypropylcellulose) (HPC)) was 6 of 6 and the survivor count (dose: 200.0 mg/kg/injection, schedule: Q04DX003 (ip), vehicle: Klucel (hydroxypropylcellulose) (HPC)) was 0 of 6. The survivor count (dose: 400.0 mg/kg/injection, schedule: Q04DX003 (ip), vehicle: Klucel (hydroxypropylcellulose) (HPC)) was 0 of 6.
With `CCCC(=O)c1ccc(OC)c(OC)c1` the survivor count [3] was 3 of 6.
In the case of `CCCCn1cnc2c(=S)nc(N)[nH]c21`, the T/C (dose: 7.5 mg/kg/injection, schedule: Q01DX Z (ip), vehicle: methylcellulose (MC)) is reported as 137 % of control, the T/C (dose: 11.0 mg/kg/injection, schedule: Q01DX Z (ip), vehicle: methylcellulose (MC)) is reported as 132 % of control and the T/C (dose: 29.0 mg/kg/injection, schedule: Q04DX003 (ip), vehicle: saline with Tween-80) is reported as 126 % of control. For the same compound, the T/C (dose: 44.0 mg/kg/injection, schedule: Q04DX003 (ip), vehicle: saline with Tween-80) was 147 % of control [5 of 6 alive], the T/C (dose: 66.0 mg/kg/injection, schedule: Q04DX003 (ip), vehicle: saline with Tween-80) was 144 % of control and the T/C (dose: 100.0 mg/kg/injection, schedule: Q04DX003 (ip), vehicle: saline with Tween-80) was 146 % of control. The T/C (dose: 150.0 mg/kg/injection, schedule: Q04DX003 (ip), vehicle: saline with Tween-80) was 142 % of control.
In the case of `O=NN(CCCl)C(=O)Nc1ccc(SCC(=O)O)cc1`, the T/C (dose: 8.0 mg/kg/injection, schedule: Q01DX001 (ip), vehicle: carboxymethylcellulose (CMC)) is reported as 133 % of control, the T/C (dose: 12.0 mg/kg/injection, schedule: Q01DX001 (ip), vehicle: carboxymethylcellulose (CMC)) is reported as 130 % of control and the T/C (dose: 40.0 mg/kg/injection, schedule: Q01DX001 (ip), vehicle: carboxymethylcellulose (CMC)) is reported as 139 % of control. For the same compound, the survivor count (dose: 60.0 mg/kg/injection, schedule: Q01DX001 (ip), vehicle: carboxymethylcellulose (CMC)) was 5 of 6, the survivor count (dose: 93.0 mg/kg/injection, schedule: Q01DX001 (ip), vehicle: carboxymethylcellulose (CMC)) was 6 of 6 and the survivor count (dose: 125.0 mg/kg/injection, schedule: Q01DX001 (ip), vehicle: carboxymethylcellulose (CMC)) was 2 of 6. The survivor count (dose: 187.0 mg/kg/injection, schedule: Q01DX001 (ip), vehicle: carboxymethylcellulose (CMC)) was 0 of 6, the survivor count (dose: 250.0 mg/kg/injection, schedule: Q01DX001 (ip), vehicle: carboxymethylcellulose (CMC)) was 0 of 6 and the survivor count (dose: 375.0 mg/kg/injection, schedule: Q01DX001 (ip), vehicle: carboxymethylcellulose (CMC)) was 0 of 6. For the same compound, the survivor count (dose: 500.0 mg/kg/injection, schedule: Q01DX001 (ip), vehicle: carboxymethylcellulose (CMC)) was 0 of 6.
For `CC1=CC(=O)CC(=O)O1`, the survivor count [3] was 6 of 6.
`N#Cc1cc2c(N)[nH]nc2nc1N` was tested, and the survivor count [4] was 6 of 6 and the survivor count [3] was 4 of 6.
In the case of `Nc1c(Cl)cc2c(c1Cl)Cc1c-2cc(Br)c(N)c1Br`, the T/C (dose: 25.0 mg/kg/injection, schedule: Q01DX001 (ip), vehicle: saline) is reported as 145 % of control, the T/C (dose: 50.0 mg/kg/injection, schedule: Q01DX001 (ip), vehicle: saline) is reported as 142 % of control [5 of 6 alive] and the survivor count (dose: 100.0 mg/kg/injection, schedule: Q01DX001 (ip), vehicle: saline) is reported as 2 of 6. The survivor count (dose: 200.0 mg/kg/injection, schedule: Q01DX001 (ip), vehicle: saline) was 4 of 6.
`CCOS(C)(=O)=O` was tested, and the survivor count (dose: 400.0 mg/kg/injection, schedule: Q04DX003 (ip), vehicle: alcohol) was 3 of 6.
`O=[N+]([O-])c1ccc(NS(=O)(=O)c2ccc(Cl)c(Cl)c2)cc1` was tested, and the survivor count (dose: 50.0 mg/kg/injection, schedule: Q01DX009 (ip), vehicle: gum acacia) was 5 of 6, the survivor count (dose: 100.0 mg/kg/injection, schedule: Q01DX001 (ip), vehicle: other) was 2 of 6 and the survivor count (dose: 200.0 mg/kg/injection, schedule: Q01DX001 (ip), vehicle: other) was 1 of 6. For the same compound, the survivor count (dose: 400.0 mg/kg/injection, schedule: Q01DX001 (ip), vehicle: other) was 0 of 6.
In the case of `c1nc2c([nH]1)CCCC2`, the survivor count (dose: 100.0 mg/kg/injection, schedule: Q01DX001 (ip), vehicle: carboxymethylcellulose (CMC)) is reported as 0 of 6, the survivor count (dose: 100.0 mg/kg/injection, schedule: Q01DX009 (ip), vehicle: carboxymethylcellulose (CMC)) is reported as 0 of 3 and 0 of 6 and the survivor count (dose: 100.0 mg/kg/injection, schedule: Q04DX002 (ip), vehicle: carboxymethylcellulose (CMC)) is reported as 0 of 3, 0 of 6, 2 of 6, 2 of 3. The survivor count (dose: 200.0 mg/kg/injection, schedule: Q04DX002 (ip), vehicle: carboxymethylcellulose (CMC)) was 0 of 3 and 0 of 6 and the survivor count (dose: 400.0 mg/kg/injection, schedule: Q04DX002 (ip), vehicle: carboxymethylcellulose (CMC)) was 0 of 3 and 0 of 6.
`C/C=C/C(=O)Nc1cccc(C)c1C` was tested, and the survivor count [4] was 6 of 6.
For `CCN(CC)CCC(CCN(CC)CC)(CNC(=O)CN(CC)CC)c1cccc2ccccc12`, the survivor count [5] was 2 of 6, the survivor count [6] was 0 of 6 and the survivor count [7] was 1 of 6.
With `O=C1N/C(=N\OCc2ccccc2)CC(NOCc2ccccc2)N1C1OC(CO)C(O)C1O` (stereo not drawn) the survivor count [7] was 4 of 4.
With `CCC(CC)NCCOC(=O)c1ccc(N)cc1` the survivor count [2] was 0 of 6.
`CSc1ncc(COP(=S)(OCc2cnc(SC)nc2N)OCc2cnc(SC)nc2N)c(N)n1` was tested, and the survivor count [5] was 6 of 6, the survivor count [6] was 3 of 6 and the survivor count [7] was 0 of 6.
`COC(=O)/C=C(\C)Nc1ccc(Cc2ccc(NC(C)=O)cc2)cc1` was tested, and the survivor count [1] was 3 of 6.
`O=[N+]([O-])c1cccc(C=Nc2cccc(C(F)(F)F)c2)c1` was tested, and the survivor count [3] was 6 of 6.

— PubChem BioAssay AID248 (DTP/NCI, 2004)
